Results are given in words; binding and its absence hold for the method and conditions named. In cells and extracts the contact can be indirect. A yes stands for co-enrichment or nearness to the bait. Other partners may have been found. Sequences can lack the tags named with a protein. Values belong to the molecule of their own block, whether it stands above or below them.
Target: T1, TAP-tagged Keratin 23 (UniProt Q9C075)
T1 sequence: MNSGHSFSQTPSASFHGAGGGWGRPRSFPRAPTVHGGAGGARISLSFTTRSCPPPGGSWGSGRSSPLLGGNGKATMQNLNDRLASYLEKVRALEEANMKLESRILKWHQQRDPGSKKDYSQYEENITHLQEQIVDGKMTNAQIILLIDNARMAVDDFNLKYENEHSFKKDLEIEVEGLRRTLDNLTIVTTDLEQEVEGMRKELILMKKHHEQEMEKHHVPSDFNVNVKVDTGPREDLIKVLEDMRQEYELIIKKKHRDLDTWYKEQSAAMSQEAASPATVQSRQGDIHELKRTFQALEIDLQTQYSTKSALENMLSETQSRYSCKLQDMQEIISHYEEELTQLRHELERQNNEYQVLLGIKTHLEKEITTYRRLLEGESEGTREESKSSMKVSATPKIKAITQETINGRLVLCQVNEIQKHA
Experiment: affinity purification with mass spectrometry; tandem affinity purification of TAP-KRT23 from lysates of stably transduced Smad4 re-expressing and Smad4 negative SW480 cells (50 mM Tris pH 7.4, 150 mM NaCl, 5 mM EDTA, 1 mM DTT, 2% Triton X-100): IgG-Sepharose, TEV cleavage, ANTI-FLAG M2-Agarose; eluate on SDS-PAGE, silver stain, bands identified by nanoLC-MS/MS

Amino acid sequences for entries named in this document (tags omitted). Residues count along the entry.
UniProt P62258: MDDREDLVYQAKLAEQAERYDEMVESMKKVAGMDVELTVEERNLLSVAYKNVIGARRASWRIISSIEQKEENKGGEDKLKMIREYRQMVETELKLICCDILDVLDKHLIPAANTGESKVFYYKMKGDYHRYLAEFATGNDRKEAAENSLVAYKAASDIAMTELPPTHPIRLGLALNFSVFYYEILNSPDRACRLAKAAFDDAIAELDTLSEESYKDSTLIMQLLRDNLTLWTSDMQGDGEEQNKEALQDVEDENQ
UniProt P11142: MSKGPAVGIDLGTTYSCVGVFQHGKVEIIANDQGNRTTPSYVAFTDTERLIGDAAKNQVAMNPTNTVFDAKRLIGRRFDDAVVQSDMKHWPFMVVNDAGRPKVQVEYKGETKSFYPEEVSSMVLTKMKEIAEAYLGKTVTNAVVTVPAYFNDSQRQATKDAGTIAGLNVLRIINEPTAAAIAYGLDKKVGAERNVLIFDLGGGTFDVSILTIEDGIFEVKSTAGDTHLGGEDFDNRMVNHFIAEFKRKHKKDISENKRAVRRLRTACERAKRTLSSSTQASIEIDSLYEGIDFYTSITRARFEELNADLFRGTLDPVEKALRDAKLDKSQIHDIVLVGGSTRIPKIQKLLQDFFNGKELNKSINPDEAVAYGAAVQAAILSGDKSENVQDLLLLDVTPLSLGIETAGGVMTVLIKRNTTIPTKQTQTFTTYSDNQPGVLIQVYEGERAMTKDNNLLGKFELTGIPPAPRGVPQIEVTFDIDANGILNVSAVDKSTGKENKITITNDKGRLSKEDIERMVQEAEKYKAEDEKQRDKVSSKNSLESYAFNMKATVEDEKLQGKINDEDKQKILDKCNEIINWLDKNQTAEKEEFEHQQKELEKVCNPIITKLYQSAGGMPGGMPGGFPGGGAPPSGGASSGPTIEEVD
UniProt P10809, residues 27-573: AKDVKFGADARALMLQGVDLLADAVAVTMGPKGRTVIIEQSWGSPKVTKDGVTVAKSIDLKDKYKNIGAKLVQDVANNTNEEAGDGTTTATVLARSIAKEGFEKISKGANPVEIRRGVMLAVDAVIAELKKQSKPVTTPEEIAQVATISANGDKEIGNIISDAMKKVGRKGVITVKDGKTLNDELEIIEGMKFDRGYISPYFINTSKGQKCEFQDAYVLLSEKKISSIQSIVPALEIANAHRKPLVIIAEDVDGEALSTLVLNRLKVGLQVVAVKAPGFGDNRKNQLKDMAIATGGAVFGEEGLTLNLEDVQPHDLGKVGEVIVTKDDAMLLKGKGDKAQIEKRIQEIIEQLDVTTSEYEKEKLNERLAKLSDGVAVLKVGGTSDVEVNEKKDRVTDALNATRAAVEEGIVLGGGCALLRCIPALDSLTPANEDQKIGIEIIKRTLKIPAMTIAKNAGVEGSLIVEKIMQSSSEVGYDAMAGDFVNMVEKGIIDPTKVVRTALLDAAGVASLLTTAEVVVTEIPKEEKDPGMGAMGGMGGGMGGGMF

Molecule: 14-3-3ε (endogenous) (from UniProt P62258 1-255)
- binding: binds

Molecule: HSP70 (from UniProt P11142 1-646)
- binding: binds

B2: 14-3-3γ (endogenous) (protein, UniProt P61981 1-247)
chain: MVDREQLVQKARLAEQAERYDDMAAAMKNVTELNEPLSNEERNLLSVAYKNVVGARRSSWRVISSIEQKTSADGNEKKIEMVRAYREKIEKELEAVCQDVLSLLDNYLIKNCSETQYESKVFYLKMKGDYYRYLAEVATGEKRATVVESSEKAYSEAHEISKEHMQPTHPIRLGLALNYSVFYYEIQNAPEQACHLAKTAFDDAIAELDTLNEDSYKDSTLIMQLLRDNLTLWTSDQQDDDGGEGNN
- binding: binds

Now from value to molecule:

- binding: binds
Molecule: HSP60 (from UniProt P10809 27-573)

- binding: binds
B1: cytokeratin 18 (protein, UniProt P05783 1-430)
chain: MSFTTRSTFSTNYRSLGSVQAPSYGARPVSSAASVYAGAGGSGSRISVSRSTSFRGGMGSGGLATGIAGGLAGMGGIQNEKETMQSLNDRLASYLDRVRSLETENRRLESKIREHLEKKGPQVRDWSHYFKIIEDLRAQIFANTVDNARIVLQIDNARLAADDFRVKYETELAMRQSVENDIHGLRKVIDDTNITRLQLETEIEALKEELLFMKKNHEEEVKGLQAQIASSGLTVEVDAPKSQDLAKIMADIRAQYDELARKNREELDKYWSQQIEESTTVVTTQSAEVGAAETTLTELRRTVQSLEIDLDSMRNLKASLENSLREVEARYALQMEQLNGILLHLESELAQTRAEGQRQAQEYEALLNIKVKLEAEIATYRRLLEDGEDFNLGDALDSSNSMQTIQKTTTRRIVDGKVVSETNDTKVLRH

Reference: article PMC3095566
